Data reported in the supplement of paper PMC7666118.
This is one part of the list.

Protein sequences, listed by entry. Tags and fused reporters are not part of them. Lines headed by an entry give the natural chain unless they say otherwise; changes in a name come on top.
UniProt Q8NBK3: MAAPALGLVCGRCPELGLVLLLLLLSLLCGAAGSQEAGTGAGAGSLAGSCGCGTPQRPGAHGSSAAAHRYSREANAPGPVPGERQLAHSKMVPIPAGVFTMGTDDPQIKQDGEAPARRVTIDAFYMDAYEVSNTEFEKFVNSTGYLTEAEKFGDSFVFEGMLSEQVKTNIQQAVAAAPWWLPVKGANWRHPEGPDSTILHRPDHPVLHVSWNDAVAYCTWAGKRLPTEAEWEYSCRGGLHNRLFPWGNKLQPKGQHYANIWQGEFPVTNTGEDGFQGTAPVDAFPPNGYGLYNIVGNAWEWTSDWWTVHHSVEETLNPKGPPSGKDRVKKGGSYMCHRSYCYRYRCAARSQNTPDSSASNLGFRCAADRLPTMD
UniProt P63165, whole entry: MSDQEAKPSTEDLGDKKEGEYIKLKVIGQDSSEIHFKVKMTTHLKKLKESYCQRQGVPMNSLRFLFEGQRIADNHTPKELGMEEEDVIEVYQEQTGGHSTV
UniProt Q15005: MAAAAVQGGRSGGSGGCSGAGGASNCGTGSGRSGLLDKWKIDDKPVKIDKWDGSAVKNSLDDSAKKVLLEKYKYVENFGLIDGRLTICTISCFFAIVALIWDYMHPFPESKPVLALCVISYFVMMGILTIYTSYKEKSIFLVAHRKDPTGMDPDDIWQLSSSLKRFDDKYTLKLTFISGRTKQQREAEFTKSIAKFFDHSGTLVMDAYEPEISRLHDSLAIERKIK
UniProt Q04837: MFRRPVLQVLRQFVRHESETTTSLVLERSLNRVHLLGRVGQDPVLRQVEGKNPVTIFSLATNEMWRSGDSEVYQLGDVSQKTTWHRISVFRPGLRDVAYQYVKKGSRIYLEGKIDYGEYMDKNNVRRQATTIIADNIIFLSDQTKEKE
UniProt Q8IWB9: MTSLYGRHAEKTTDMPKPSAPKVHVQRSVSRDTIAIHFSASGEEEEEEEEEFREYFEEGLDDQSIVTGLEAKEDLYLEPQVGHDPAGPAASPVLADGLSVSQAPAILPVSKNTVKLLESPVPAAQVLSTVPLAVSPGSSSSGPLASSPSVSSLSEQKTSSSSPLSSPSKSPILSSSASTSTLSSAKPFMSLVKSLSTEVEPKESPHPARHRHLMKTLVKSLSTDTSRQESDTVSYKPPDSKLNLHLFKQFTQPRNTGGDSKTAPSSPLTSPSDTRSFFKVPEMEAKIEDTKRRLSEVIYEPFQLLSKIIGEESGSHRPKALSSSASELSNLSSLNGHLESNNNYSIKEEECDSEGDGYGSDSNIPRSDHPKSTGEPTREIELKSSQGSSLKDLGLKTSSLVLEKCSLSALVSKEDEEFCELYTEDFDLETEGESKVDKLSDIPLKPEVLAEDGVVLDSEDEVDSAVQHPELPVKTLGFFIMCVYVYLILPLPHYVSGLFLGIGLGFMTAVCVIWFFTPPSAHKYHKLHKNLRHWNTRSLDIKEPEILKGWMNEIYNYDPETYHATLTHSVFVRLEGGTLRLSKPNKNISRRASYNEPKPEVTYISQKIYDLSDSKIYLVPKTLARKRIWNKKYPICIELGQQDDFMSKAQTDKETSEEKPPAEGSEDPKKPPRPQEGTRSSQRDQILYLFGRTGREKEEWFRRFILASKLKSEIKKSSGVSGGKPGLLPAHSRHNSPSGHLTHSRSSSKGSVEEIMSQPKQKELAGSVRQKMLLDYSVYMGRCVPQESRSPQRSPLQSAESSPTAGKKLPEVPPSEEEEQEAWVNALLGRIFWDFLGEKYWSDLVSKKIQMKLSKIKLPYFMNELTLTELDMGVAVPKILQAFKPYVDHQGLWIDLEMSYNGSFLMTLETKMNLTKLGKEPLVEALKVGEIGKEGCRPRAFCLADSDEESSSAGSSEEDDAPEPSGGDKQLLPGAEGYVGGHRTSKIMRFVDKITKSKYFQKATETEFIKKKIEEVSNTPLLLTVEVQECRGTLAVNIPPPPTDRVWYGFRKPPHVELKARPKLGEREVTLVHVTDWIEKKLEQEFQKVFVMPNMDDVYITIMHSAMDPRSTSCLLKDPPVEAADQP
UniProt P35270: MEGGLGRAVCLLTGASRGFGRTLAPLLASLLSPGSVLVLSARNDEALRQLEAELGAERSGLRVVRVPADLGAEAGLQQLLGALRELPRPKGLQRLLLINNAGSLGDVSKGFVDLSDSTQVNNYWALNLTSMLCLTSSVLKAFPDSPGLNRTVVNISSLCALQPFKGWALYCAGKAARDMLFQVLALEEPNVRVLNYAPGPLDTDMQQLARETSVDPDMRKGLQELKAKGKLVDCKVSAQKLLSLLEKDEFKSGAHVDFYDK
UniProt Q9UBP0: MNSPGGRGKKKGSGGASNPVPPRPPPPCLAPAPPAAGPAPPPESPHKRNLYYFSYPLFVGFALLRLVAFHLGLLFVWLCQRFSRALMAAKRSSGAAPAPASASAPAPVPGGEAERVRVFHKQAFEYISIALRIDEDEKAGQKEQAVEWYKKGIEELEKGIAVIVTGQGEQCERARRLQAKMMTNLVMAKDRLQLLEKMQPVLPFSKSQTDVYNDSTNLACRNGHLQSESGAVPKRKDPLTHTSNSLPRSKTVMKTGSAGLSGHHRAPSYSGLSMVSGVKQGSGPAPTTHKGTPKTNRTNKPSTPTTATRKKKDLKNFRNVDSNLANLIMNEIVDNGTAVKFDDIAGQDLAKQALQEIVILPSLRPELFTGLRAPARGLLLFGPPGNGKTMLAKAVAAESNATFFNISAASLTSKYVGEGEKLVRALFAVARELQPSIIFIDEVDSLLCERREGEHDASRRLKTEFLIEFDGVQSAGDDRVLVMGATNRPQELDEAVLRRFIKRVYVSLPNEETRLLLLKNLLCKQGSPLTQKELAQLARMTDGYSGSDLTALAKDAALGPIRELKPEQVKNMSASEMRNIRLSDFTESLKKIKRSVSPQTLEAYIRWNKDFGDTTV
UniProt Q15633: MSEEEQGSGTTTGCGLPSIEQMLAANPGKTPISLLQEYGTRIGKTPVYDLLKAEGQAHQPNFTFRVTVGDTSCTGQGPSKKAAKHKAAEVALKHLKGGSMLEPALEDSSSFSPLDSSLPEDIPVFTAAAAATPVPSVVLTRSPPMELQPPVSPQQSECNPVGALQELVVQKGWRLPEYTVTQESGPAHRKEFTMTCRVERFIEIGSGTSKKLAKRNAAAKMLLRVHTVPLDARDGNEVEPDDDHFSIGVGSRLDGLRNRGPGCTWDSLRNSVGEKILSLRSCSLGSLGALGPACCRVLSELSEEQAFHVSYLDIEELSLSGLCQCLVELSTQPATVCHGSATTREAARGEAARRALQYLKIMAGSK
UniProt Q96A49: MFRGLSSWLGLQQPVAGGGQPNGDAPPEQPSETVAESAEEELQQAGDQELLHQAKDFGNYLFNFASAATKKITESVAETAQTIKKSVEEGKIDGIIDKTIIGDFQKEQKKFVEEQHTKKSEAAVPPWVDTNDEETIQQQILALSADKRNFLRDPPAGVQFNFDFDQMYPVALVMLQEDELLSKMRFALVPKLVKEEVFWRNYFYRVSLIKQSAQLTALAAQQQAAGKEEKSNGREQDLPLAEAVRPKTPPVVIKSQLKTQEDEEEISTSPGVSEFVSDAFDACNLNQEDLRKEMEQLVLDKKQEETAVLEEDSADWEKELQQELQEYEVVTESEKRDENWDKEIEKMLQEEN
UniProt Q01664: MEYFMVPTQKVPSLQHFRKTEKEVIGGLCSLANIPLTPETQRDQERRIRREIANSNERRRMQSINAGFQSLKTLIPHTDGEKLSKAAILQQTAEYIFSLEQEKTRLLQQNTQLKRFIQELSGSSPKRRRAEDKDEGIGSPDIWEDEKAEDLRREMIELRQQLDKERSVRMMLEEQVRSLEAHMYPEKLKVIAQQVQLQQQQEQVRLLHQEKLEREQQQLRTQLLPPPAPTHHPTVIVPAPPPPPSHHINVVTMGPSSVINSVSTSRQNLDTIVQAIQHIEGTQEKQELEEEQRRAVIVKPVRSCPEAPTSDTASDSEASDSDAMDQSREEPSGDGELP
UniProt Q17R31: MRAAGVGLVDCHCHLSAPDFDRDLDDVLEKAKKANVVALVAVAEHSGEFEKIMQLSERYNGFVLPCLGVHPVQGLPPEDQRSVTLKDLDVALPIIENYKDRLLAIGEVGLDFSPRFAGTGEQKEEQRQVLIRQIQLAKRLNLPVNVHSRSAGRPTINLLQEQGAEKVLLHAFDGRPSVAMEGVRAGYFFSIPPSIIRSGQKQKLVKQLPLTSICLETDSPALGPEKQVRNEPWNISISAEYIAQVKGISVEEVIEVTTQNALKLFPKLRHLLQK
UniProt Q92804: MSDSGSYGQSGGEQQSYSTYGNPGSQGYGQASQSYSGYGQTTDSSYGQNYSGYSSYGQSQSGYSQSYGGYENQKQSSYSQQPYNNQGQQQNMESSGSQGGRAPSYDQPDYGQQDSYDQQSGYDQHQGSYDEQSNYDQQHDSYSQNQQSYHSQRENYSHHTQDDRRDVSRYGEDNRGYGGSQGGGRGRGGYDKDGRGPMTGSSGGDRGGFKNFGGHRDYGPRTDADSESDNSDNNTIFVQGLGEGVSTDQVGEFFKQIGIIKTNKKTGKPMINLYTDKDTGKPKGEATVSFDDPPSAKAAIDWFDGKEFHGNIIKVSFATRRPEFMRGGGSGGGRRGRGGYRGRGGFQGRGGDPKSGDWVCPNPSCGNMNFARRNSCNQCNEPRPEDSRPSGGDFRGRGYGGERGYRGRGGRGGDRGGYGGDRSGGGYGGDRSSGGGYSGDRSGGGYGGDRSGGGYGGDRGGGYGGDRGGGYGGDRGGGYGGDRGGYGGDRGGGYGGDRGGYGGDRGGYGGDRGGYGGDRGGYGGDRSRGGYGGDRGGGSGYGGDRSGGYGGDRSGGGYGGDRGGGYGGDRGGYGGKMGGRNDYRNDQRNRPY
UniProt Q9Y6J9: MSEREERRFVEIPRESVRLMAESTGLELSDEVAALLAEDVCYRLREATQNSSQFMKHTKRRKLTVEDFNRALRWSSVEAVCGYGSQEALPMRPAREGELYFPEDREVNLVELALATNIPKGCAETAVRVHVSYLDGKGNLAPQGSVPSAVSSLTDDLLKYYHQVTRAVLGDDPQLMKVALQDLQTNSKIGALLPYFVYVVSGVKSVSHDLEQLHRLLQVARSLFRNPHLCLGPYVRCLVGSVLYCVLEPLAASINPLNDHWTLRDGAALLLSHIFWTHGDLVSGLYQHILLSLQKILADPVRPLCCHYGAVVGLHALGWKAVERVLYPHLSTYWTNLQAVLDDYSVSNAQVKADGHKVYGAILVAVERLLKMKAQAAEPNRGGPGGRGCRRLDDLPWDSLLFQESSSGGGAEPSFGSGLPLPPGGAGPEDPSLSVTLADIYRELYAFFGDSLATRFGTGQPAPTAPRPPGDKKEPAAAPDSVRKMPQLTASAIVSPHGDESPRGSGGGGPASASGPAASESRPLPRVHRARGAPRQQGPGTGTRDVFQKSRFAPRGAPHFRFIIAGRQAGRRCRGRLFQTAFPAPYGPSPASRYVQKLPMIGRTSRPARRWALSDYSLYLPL
UniProt Q13190: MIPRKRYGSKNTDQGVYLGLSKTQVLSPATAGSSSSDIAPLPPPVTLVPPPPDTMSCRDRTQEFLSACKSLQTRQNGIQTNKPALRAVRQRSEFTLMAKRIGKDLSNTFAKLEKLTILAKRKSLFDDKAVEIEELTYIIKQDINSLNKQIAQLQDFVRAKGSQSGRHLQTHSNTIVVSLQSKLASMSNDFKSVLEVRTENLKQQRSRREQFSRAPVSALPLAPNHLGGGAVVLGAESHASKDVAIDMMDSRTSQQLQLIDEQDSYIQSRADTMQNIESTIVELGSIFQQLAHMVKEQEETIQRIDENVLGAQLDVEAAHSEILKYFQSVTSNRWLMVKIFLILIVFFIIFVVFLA
UniProt O75410: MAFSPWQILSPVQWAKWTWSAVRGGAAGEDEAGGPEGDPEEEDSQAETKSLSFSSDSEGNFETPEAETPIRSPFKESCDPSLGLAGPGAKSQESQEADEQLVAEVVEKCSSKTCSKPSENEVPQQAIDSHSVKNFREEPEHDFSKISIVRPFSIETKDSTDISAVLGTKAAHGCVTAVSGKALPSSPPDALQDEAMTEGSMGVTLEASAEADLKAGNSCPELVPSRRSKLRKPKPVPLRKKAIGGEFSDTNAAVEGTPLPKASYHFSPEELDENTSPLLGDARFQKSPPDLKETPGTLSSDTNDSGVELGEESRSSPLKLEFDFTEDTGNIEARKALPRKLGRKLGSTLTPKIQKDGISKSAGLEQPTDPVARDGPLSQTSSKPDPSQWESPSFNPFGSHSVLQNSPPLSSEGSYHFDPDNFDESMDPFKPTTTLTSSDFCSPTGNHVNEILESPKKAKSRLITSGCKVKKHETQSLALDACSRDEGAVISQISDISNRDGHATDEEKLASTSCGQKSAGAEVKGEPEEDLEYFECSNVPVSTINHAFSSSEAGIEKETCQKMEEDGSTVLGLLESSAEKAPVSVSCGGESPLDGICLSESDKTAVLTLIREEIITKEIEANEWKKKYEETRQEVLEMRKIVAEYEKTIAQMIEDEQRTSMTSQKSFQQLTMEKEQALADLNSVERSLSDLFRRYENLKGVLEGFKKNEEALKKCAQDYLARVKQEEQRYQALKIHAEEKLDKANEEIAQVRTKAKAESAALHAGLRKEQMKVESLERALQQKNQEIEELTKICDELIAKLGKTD

compound: COc1ccc(Cn2ccc3cc(C)c(C(=O)NO)cc32)cc1; assay: dose-dependent thermal stabilisation call (2D-TPP, DLPTP, 10% FDR) (binary (1 = stabilised)); higher = stabilised by the compound; settings: system: HL-60 intact cells; concentration range 0.04-10 µM
Description: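 2D thermal proteome profiling in intact HL-60 cells treated with BRD-3811 (0, 0.04, 0.29, 2, 10 uM) for 90 min at 37 C, then heated 3 min at one of 12 temperatures (42-63.9 C). Soluble protein was quantified by TMT10 MS. The value is the DLPTP call of the paper: dose-dependent thermal stabilisation over all temperatures at 10% FDR (F-test of a dose-response against a flat model); one experiment, one call per tested protein.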

Row | Target | dose-dependent thermal stabilisation call
1 | TFG (UniProt Q92734) | inactive: 0
2 | SUMF1 (UniProt Q8NBK3) | inactive: 0
3 | SUMO1 (UniProt P63165) | inactive: 0
4 | SPCS2 (UniProt Q15005) | inactive: 0
5 | TCEB1 (UniProt Q15369) | inactive: 0
6 | SSBP1 (UniProt Q04837) | inactive: 0
7 | SUPT5H (UniProt O00267) | inactive: 0
8 | SSB (UniProt P05455) | inactive: 0
9 | TEX2 (UniProt Q8IWB9) | inactive: 0
10 | TAOK3 (UniProt Q9H2K8) | inactive: 0
11 | TBCD (UniProt Q9BTW9) | inactive: 0
12 | TFRC (UniProt P02786) | inactive: 0
13 | TBK1 (UniProt Q9UHD2) | inactive: 0
14 | TBC1D4 (UniProt O60343) | inactive: 0
15 | STAU2 (UniProt Q9NUL3) | inactive: 0
16 | STRBP (UniProt Q96SI9) | inactive: 0
17 | SPR (UniProt P35270) | inactive: 0
18 | TARS2 (UniProt Q9BW92) | inactive: 0

Row | Target | dose-dependent thermal stabilisation call
19 | SURF6 (UniProt O75683) | inactive: 0
20 | SPAST (UniProt Q9UBP0) | inactive: 0
21 | TAF7 (UniProt Q15545) | inactive: 0
22 | TBC1D7 (UniProt Q9P0N9) | inactive: 0
23 | SRRM1 (UniProt Q8IYB3) | inactive: 0
24 | TCP10L (UniProt Q8TDR4) | inactive: 0
25 | TARBP2 (UniProt Q15633) | inactive: 0
26 | SYAP1 (UniProt Q96A49) | inactive: 0
27 | TFAP4 (UniProt Q01664) | inactive: 0
28 | TATDN3 (UniProt Q17R31) | inactive: 0
29 | TAF15 (UniProt Q92804) | inactive: 0
30 | SON (UniProt P18583) | inactive: 0
31 | TAF6L (UniProt Q9Y6J9) | inactive: 0
32 | STX5 (UniProt Q13190) | inactive: 0
33 | ST8SIA4 (UniProt Q92187) | inactive: 0
34 | STX10 (UniProt O60499) | inactive: 0
35 | TFB1M (UniProt Q8WVM0) | inactive: 0
36 | TACC1 (UniProt O75410) | inactive: 0
